Data taken from the supplement of paper PMC7238544.
Where a name gives a salt, the structure may show the parent alone. ± gives the standard deviation of the averaged measurements. The list shows a part of the results. The data scatter; read single values as rough.

Assays:
[1] = test system: hAMSC donor 1; experiment: Hoechst total cell count ratio vs vehicle control; higher = more cells (less toxicity)
[2] = test system: hAMSC donor 2; experiment: as above
[3] = test system: hAMSC donor 1; experiment: transgenic luciferase activity (RLU/mg protein) fold change vs vehicle control (ratio); higher = more transgene expression
[4] = test system: hAMSC donor 2; experiment: as above
[5] = test system: hAMSC donor 1; experiment: transfection efficiency (EGFP+ cells / Hoechst count) fold change vs vehicle control (ratio); hAMSC are human adipose-derived mesenchymal stem cells given an EGFP-luciferase plasmid by lipofection; higher = enhanced transfection
[6] = test system: hAMSC donor 2; experiment: as above
[7] = priming compound concentration 0.2 µM
[8] = priming compound concentration 1.7 µM
[9] = priming compound concentration 13 µM

Structure (SMILES)	Hoechst total cell count ratio [1, 7]	Hoechst total cell count ratio [1, 8]	Hoechst total cell count ratio [1, 9]	Hoechst total cell count ratio [2, 7]	Hoechst total cell count ratio [2, 8]	Hoechst total cell count ratio [2, 9]	transgenic luciferase activity [3, 7]	transgenic luciferase activity [3, 8]	transgenic luciferase activity [3, 9]	transgenic luciferase activity [4, 9]	transfection efficiency [5, 7]	transfection efficiency [5, 8]	transfection efficiency [5, 9]	transfection efficiency [6, 7]	transfection efficiency [6, 8]	transfection efficiency [6, 9]	transgenic luciferase activity [4, 7]	transgenic luciferase activity [4, 8]
CC[C@H](C)C(=O)O[C@H]1C[C@H](O)C=C2C=C[C@H](C)[C@H](CC[C@@H](O)C[C@@H](O)CC(=O)O)[C@H]21 [Pravastatin sodium]	1.04 ± 0.1	1.09 ± 0.16	0.892 ± 0.042	0.754 ± 0.059	0.549 ± 0.071	1.09 ± 0.021	0.683 ± 0.23	0.685 ± 0.26	0.977 ± 0.82	1.18 ± 0.27	1.19 ± 0.019	1.4 ± 0.21	0.858 ± 0.065	1.32 ± 0.015	1.24 ± 0.11	1.34 ± 0.58		
COc1cc(C)nc(-n2nc(C)cc2OC)n1 [Mepirizole]	1.35 ± 0.078	1.23 ± 0.15	1.09 ± 0.052	1.04 ± 0.32	0.804 ± 0.14	1.2 ± 0.17	0.402 ± 0.28	0.843 ± 0.46	0.98 ± 0.34	1.21 ± 0.1	1.14 ± 0.21	1.27 ± 0.23	1.05 ± 0.24	0.939 ± 0.081	1.34 ± 0.035	1.28 ± 0.23		
O=C(O)c1cc(/N=N/c2ccc(S(=O)(=O)Nc3ccccn3)cc2)ccc1O [Sulfasalazine]	1.34 ± 0.15	1.26 ± 0.056	1.13 ± 0.12	1.16 ± 0.16	0.857 ± 0.08	1.17 ± 0.25	0.634 ± 0.19	0.574 ± 0.43	1.04 ± 0.18	1.03 ± 0.033	1.05 ± 0.14	1.13 ± 0.14	0.965 ± 0.044	1.02 ± 0.21	1.1 ± 0.2	1.63 ± 0.16		
Cc1cc(NS(=O)(=O)c2ccc(N)cc2)no1 [Sulfamethoxazole]	1.39 ± 0.097	1.06 ± 0.15	1.21 ± 0.11	0.865 ± 0.16	0.888 ± 0.088	1.39 ± 0.086	0.852 ± 0.12	1.52 ± 0.65	0.389 ± 0.36	1.15 ± 0.46	1.17 ± 0.1	1.26 ± 0.17	0.967 ± 0.33	0.914 ± 0.17	1.38 ± 0.095	1.15 ± 0.017		
CC(C)Oc1ccc2c(=O)c(-c3ccccc3)coc2c1 [Ipriflavone]	1.39 ± 0.21	1.08 ± 0.055	1.17 ± 0.088	1.05 ± 0.4	0.75 ± 0.044	1.41 ± 0.21	0.583 ± 0.21	2.79 ± 1.7	2.08 ± 1.3	2.95 ± 0.41	0.804 ± 0.19	1.51 ± 0.32	1.46 ± 0.081	1.08 ± 0.23	1.55 ± 0.19	2.12 ± 0.12		
O=C(CCCN1CCC(O)(c2ccc(Cl)cc2)CC1)c1ccc(F)cc1 [Haloperidol hydrochloride]							1.24 ± 0.78	2.1 ± 0.63	2.06 ± 0.2	0.899 ± 0.26				0.856 ± 0.14	0.767 ± 0.14	0.57 ± 0.093	0.962 ± 0.067	0.91 ± 0.24
CC(=O)Nc1nnc(S(N)(=O)=O)s1 [Acetazolamide]	1.41 ± 0.28	1.25 ± 0.093	1.22 ± 0.031	0.892 ± 0.1	0.881 ± 0.06	1.24 ± 0.21	0.594 ± 0.17	0.934 ± 0.087	1.07 ± 0.32	0.888 ± 0.041	1.29 ± 0.17	1.08 ± 0.17	0.861 ± 0.13	1.32 ± 0.079	1.11 ± 0.22	1.24 ± 0.25		
Clc1ccc(COC(Cn2ccnc2)c2ccc(Cl)cc2Cl)c(Cl)c1 (stereo not drawn) [Miconazole nitrate]	1.18 ± 0.22	1.3 ± 0.13	1.22 ± 0.031	1.05 ± 0.36	1.02 ± 0.057	1.52 ± 0.089	0.553 ± 0.15	0.843 ± 0.052	0.476 ± 0.51	0.863 ± 0.36	1.19 ± 0.18	0.878 ± 0.17	0.901 ± 0.23	1.34 ± 0.41	1.11 ± 0.18	1.27 ± 0.084		
S=c1[nH]cnc2nc[nH]c12 [Mercaptopurine]	0.842 ± 0.1	1.03 ± 0.11	1.11 ± 0.044	1.05 ± 0.22	0.925 ± 0.029	1.26 ± 0.31	0.615 ± 0.19	0.583 ± 0.3	0.917 ± 0.4	0.967 ± 0.22	1.66 ± 0.053	1.06 ± 0.13	0.726 ± 0.13	1.18 ± 0.37	1.09 ± 0.021	1.53 ± 0.53		
CO/N=C(\C(=O)N[C@@H]1C(=O)N2C(C(=O)O)=C(COC(N)=O)CS[C@H]12)c1ccco1 [Cefuroxime]	1.06 ± 0.093	1.3 ± 0.19	1.23 ± 0.077	1.38 ± 0.072	1.14 ± 0.033	1.39 ± 0.03		0.299 ± 0.019	1.23 ± 0.31	0.434 ± 0.08	0.597 ± 0.099	0.751 ± 0.38	0.707 ± 0.2	0.987 ± 0.034	1.13 ± 0.24	0.837 ± 0.067	0.93 ± 0.13	1.04 ± 0.028
CCCc1cc(=O)[nH]c(=S)[nH]1 [Propylthiouracil]	1.08 ± 0.062	1.05 ± 0.16	1.12 ± 0.12	0.826 ± 0.086	0.87 ± 0.16	1.21 ± 0.18	0.635 ± 0.081	1.98 ± 1.2	0.329 ± 0.11	1.19 ± 0.14	1.16 ± 0.16	1.12 ± 0.14	0.821 ± 0.043	1.7 ± 0.36	1.29 ± 0.084	1.42 ± 0.53		
CCOC(=O)[C@H](CCc1ccccc1)N[C@@H](C)C(=O)N1Cc2ccccc2C[C@H]1C(=O)O [Quinapril hydrochloride]	1.35 ± 0.17	1.13 ± 0.063	1.12 ± 0.13	1.06 ± 0.21	0.649 ± 0.049	1.23 ± 0.11	0.713 ± 0.21	1.35 ± 0.38	0.726 ± 0.49	0.816 ± 0.37	1.05 ± 0.068	1.17 ± 0.054	0.757 ± 0.17	1.06 ± 0.4	1.42 ± 0.25	1.4 ± 0.39		
CCN(CC)CC1CCCCN1CC(=O)N1c2ccccc2C(=O)Nc2cccnc21 (stereo not drawn) [Otenzepad]	1.25 ± 0.26	1.39 ± 0.14	1.11 ± 0.092	1.44 ± 0.34	0.756 ± 0.01	1.04 ± 0.11	0.892 ± 0.44	1.06 ± 0.26	0.183 ± 0.13	1.02 ± 0.21	0.935 ± 0.13	0.975 ± 0.17	1.03 ± 0.16	0.895 ± 0.11	1.06 ± 0.076	0.913 ± 0.044	0.414 ± 0.31	0.997 ± 0.055
NC(=O)c1ncn([C@@H]2O[C@H](CO)[C@@H](O)[C@H]2O)n1 [Ribavirin]	1.03 ± 0.099	1.01 ± 0.03	1.15 ± 0.084	1.27 ± 0.16	1.01 ± 0.12	1.33 ± 0.13	1.05 ± 0.94	0.86 ± 0.11	0.536 ± 0.21	1.56 ± 0.2	1.27 ± 0.16	1.35 ± 0.19	0.906 ± 0.27	0.93 ± 0.043	1.17 ± 0.056	1.21 ± 0.22	0.426 ± 0.21	1.69 ± 0.74
NC12CC3CC(CC(C3)C1)C2 [Symmetrel]	1.52 ± 0.21	1.27 ± 0.18	1.28 ± 0.084	0.839 ± 0.26	0.589 ± 0.13	1.34 ± 0.32	0.492 ± 0.28	0.65 ± 0.27	0.342 ± 0.18	1.08 ± 0.098	1.03 ± 0.29	1.02 ± 0.097	0.6 ± 0.15	1.33 ± 0.38	1.14 ± 0.092	1.57 ± 0.2		

A stretch from the list above, for reference:
Structure (SMILES)	Hoechst total cell count ratio [1, 7]	Hoechst total cell count ratio [1, 8]	Hoechst total cell count ratio [1, 9]	Hoechst total cell count ratio [2, 7]	Hoechst total cell count ratio [2, 8]	Hoechst total cell count ratio [2, 9]	transgenic luciferase activity [3, 7]	transgenic luciferase activity [3, 8]	transgenic luciferase activity [3, 9]	transgenic luciferase activity [4, 9]	transfection efficiency [5, 7]	transfection efficiency [5, 8]	transfection efficiency [5, 9]	transfection efficiency [6, 7]	transfection efficiency [6, 8]	transfection efficiency [6, 9]	transgenic luciferase activity [4, 7]	transgenic luciferase activity [4, 8]
CC[C@H](C)C(=O)O[C@H]1C[C@H](O)C=C2C=C[C@H](C)[C@H](CC[C@@H](O)C[C@@H](O)CC(=O)O)[C@H]21 [Pravastatin sodium]	1.04 ± 0.1	1.09 ± 0.16	0.892 ± 0.042	0.754 ± 0.059	0.549 ± 0.071	1.09 ± 0.021	0.683 ± 0.23	0.685 ± 0.26	0.977 ± 0.82	1.18 ± 0.27	1.19 ± 0.019	1.4 ± 0.21	0.858 ± 0.065	1.32 ± 0.015	1.24 ± 0.11	1.34 ± 0.58		
COc1cc(C)nc(-n2nc(C)cc2OC)n1 [Mepirizole]	1.35 ± 0.078	1.23 ± 0.15	1.09 ± 0.052	1.04 ± 0.32	0.804 ± 0.14	1.2 ± 0.17	0.402 ± 0.28	0.843 ± 0.46	0.98 ± 0.34	1.21 ± 0.1	1.14 ± 0.21	1.27 ± 0.23	1.05 ± 0.24	0.939 ± 0.081	1.34 ± 0.035	1.28 ± 0.23		
